# Measurements as given in PubChem BioAssay AID2685 (National Center for Advancing Translational Sciences (NCATS), 2010).
# Some of the results follow. Further columns of the screen follow, without active or inactive calls. Compounds called inactive in the main read-out are mostly missing here. The note in brackets gives the kind of curve behind each potency; many fits are weak.
# Experiment: qHTS Assay for Lipid Storage Modulators in Drosophila S3 Cells;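 on cell number change: cells counted by Cell Tracker Red CMTPX staining in the red channel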
# Settings: BODIPY lipid droplet fluorescence, 18-24 h; for cell number change: measured here: cell count max response, cells fed with added oleic acid
# In short: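 Drosophila S3 cells loaded with oleic acid (400 uM, as added) and compounds at several concentrations; lipid droplets imaged by 488-nm laser-scanning cytometry, 500–530 nm intensity and object ratio to cell channel. Percent activity normalized to 20 uM Triacsin C.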
# [1] = measured here: cell number channel AC50, cells fed with added oleic acid
# [2] = measured here: lipid fluorescence (Fed channel) AC50, cells fed with added oleic acid
Compound,cell number change,AC50 [1],AC50 [2]
CSc1nnc(SCc2nc3sc(C(=O)O)c(C)c3c(=O)[nH]2)s1,-43.2%,"16.4 µM [falling, single point]","20.6 µM [falling, single point]"
CCOC(=O)N1CCC(NCCNC(=O)c2cccc(F)c2)CC1,2.52%,"0.00461 µM [falling, full curve, poor fit]","0.0058 µM [falling, full curve, poor fit]"
O=Cc1cc(N=Nc2ccccc2Cl)ccc1O,-51.5%,"18.4 µM [falling, single point]","20.6 µM [falling, partial curve]"
O=c1oc(CCCO)cc2ccc(/C=C/c3cccc([N+](=O)[O-])c3)cc12,-37.6%,"4.61 µM [falling, single point]",–
Cc1nc2ccccc2c2c1CC(C(C)(Cl)Br)O2 (stereo unspecified),-43%,"29.1 µM [falling, single point]","16.4 µM [falling, partial curve]"
CS(=O)(=O)Nc1ccc(C(=O)Nc2ccccc2Sc2ccccc2)cc1,10.9%,"0.82 µM [falling, single point]","1.3 µM [falling, single point]"
CCCSC(=O)N(CC)CC(=O)Nc1c(CC)cccc1CC,-6.49%,–,–
CN(Cc1ccccc1)C1=CC(=[N+]2CCCC2)CC(C)(C)C1,-22.5%,–,"29.1 µM [falling, single point]"
CC1CC(C)CN(S(=O)(=O)c2ccc(NC(=O)CCNC(=O)c3ccc([N+](=O)[O-])cc3)cc2)C1 (stereo unspecified),1.76%,–,–
Cc1cc2c(nn1)CCC/C2=N\O,-39.6%,"29.1 µM [falling, single point]","16.4 µM [falling, single point]"
Cc1cc(OC(C)C(=O)N2CCN(c3ccc(F)cc3)CC2)c2c(C)c(C)c(=O)oc2c1 (stereo unspecified),20.3%,–,"29.1 µM [rising, single point]"
CC(C)(C)c1cc[n+](-c2[nH]c(=O)sc2/C=N/NC(=O)c2ccccc2[O-])cc1,5.71%,–,–
Cc1cc(S(=O)(=O)Nc2nc(CN3CCOCC3)nc3sc4c(c23)CCC4)cc(C)c1C,17.5%,–,–
COc1ccccc1C(=O)Nc1ccc(C(=O)Nc2ccccc2C(=O)O)cc1,1.62%,–,–
CC(=O)Nc1ccc(-c2csc(NNC(=O)c3ccccc3)n2)cc1,19.1%,–,"29.1 µM [rising, single point]"
CNc1c(NS(=O)(=O)c2ccc(OC)c(Cl)c2)c(=O)oc2ccccc12,–,–,"14.6 µM [falling, partial curve]"
O=C1Nc2ccccc2C(O)(C(=O)NC2CC2)N1c1ccc(Cl)c(Cl)c1 (stereo unspecified),-5.3%,–,–
O=C(CN(CCc1ccccc1)S(=O)(=O)c1ccc(Br)cc1)N/N=C/c1ccc2c(c1)OCO2,25.8%,"0.411 µM [rising, full curve, poor fit]","0.291 µM [rising, full curve, poor fit]"
Cc1ccc(Cl)c(OCCCN(C)Cc2ccccc2)c1,-60.7%,"20.6 µM [falling, single point]","18.4 µM [falling, single point]"
C=C1CCC[C@]2(C)C[C@H]3OC(=O)C(CN(Cc4ccc(OC)c(OC)c4)CC(C)O)[C@H]3CC12 (stereo partly specified),3.52%,–,"4.61 µM [falling, single point]"
CN(C(=O)CCc1nc2ccccc2s1)c1ccccc1,–,"2.06 µM [rising, partial curve]","2.06 µM [rising, partial curve]"

Compound,cell number change,AC50 [1],AC50 [2]
CC(=O)NC(CSC(CC(=O)c1ccco1)c1ccc(C)cc1)C(=O)O (stereo unspecified),16.5%,–,–
O=C(N/N=C/c1ccc([N+](=O)[O-])cc1)c1[nH]ncc1Br,–,–,"18.4 µM [rising, single point]"
N/C(=N\OC(=O)CSc1ccccc1)c1ccncc1,–,–,"2.31 µM [rising, partial curve, poor fit]"
Cc1ccnc(NC(=O)c2oc3ccccc3c2C)c1,5.27%,–,"7.31 µM [falling, partial curve]"
CCN(CC)S(=O)(=O)c1ccc(C(=O)N2CCN(c3ncccn3)CC2)cc1,-23.7%,–,"0.282 µM [falling, partial curve, poor fit]"
COc1ccccc1NC(=O)C1CCN(c2ncnc3c2nc2n3CCCCC2)CC1,2.64%,"0.411 µM [rising, full curve]",–
O=C1CC(c2ccccc2)=Nc2ccc(Br)cc2N1,–,"0.00461 µM [rising, full curve, poor fit]",–
CCOC(=O)N/N=C/c1cn(CCCOc2ccccc2)c2ccccc12,-16.7%,–,"1.46 µM [falling, partial curve]"
CC(C)c1[nH]nc2c1C(C(C)C)C(C#N)=C(N)O2 (stereo unspecified),9.93%,–,"29.1 µM [rising, single point]"
c1ccc(CSC2=NCCCN2)cc1,-24.6%,–,"29.1 µM [falling, single point]"
O=C(C1CCC(=O)N(C2CC2)C1)N(CCO)Cc1ccccc1 (stereo unspecified),11.3%,–,"0.291 µM [falling, partial curve, poor fit]"
CC1=NN(C(=O)c2ccc(C)cc2)C(O)(C(F)(F)OC(F)(F)F)C1 (stereo unspecified),16.1%,–,"29.1 µM [rising, single point]"
Cc1cccc(C)c1NC(=O)CN(C)CC(=O)Nc1sc2c(c1C(N)=O)CCC2,25%,–,"29.1 µM [falling, single point]"
O=C(Nc1ccc(F)cc1Cl)c1ccc2c(=O)n3c(nc2c1)CCC3,-15%,–,–
FC(F)(F)c1cnc(-n2cc[nH]c2=S)c(Cl)c1,14.2%,–,"0.366 µM [falling, full curve]"
CC1(C)C[C@@H]2C[C@@](C)(CN2C(=O)c2cc(COc3cccc(C(F)(F)F)c3)on2)C1,-15%,–,"20.6 µM [falling, single point]"
Cc1ccc(S(=O)(=O)N2CCN(C(=O)c3ccc4ccccc4n3)CC2)c(C)c1,-48.6%,"0.00461 µM [falling, full curve, poor fit]","1.84 µM [falling, partial curve]"
COc1ccc(/C=N/NC(=S)Nc2cc(S(=O)(=O)N3CCOCC3)ccc2N2CCOCC2)cc1O,92.6%,"9.2 µM [rising, single point]",–
COc1ccc(OCC(=O)Nc2ccccc2C(=O)NC2CC2)cc1,-11.6%,–,"13 µM [falling, partial curve, poor fit]"
Nc1cc(C(=O)OCC(=O)N2CCN(C(=O)COC(=O)c3ccc(Cl)c(N)c3)CC2)ccc1Cl,-25%,–,"0.651 µM [rising, single point]"
COc1ccccc1CNC(=O)CSc1nc2nc(C)cc(C)n2n1,3.6%,–,"6.51 µM [rising, single point]"

Compound,cell number change,AC50 [1],AC50 [2]
CCc1cc2c(=O)c(-c3ccc4c(c3)OCCO4)coc2c(CN2CCCCC2C)c1O (stereo unspecified),-12%,–,"0.517 µM [rising, single point]"
Cc1ccc(OCCC(=O)Nc2ccc3c(c2)OCCCO3)cc1,-13%,–,"0.58 µM [rising, single point]"
Cc1ccc(C2=N/C(=C\c3c(C)nn(-c4ccccc4)c3N3CCCC3)C(=O)O2)cc1,7.54%,–,"6.51 µM [rising, single point]"
COc1ccccc1C1C(C#N)=C(N)Oc2c1c(-c1ccccc1)nn2-c1ccccc1 (stereo unspecified),-0.635%,"6.51 µM [falling, single point]",–
CCOP(=O)(OCC)C(Nc1ccccc1)c1cc(OC)ccc1OC (stereo unspecified),3.18%,–,–
CC(=O)N1CCN(Cc2nc3ccc(Cl)cc3n2CCO)CC1,1.32%,–,–
CC(=O)Nc1ccc(C(=O)COC(=O)C2CCCCC2)c(F)c1,10.2%,"6.51 µM [rising, single point]","3.66 µM [rising, single point]"
Cc1cc(=O)oc2c3c(cc(OCC(=O)NCc4cccnc4)c12)OC(C)(C)CC3,0.647%,–,–
Cc1onc(-c2c(Cl)cccc2Cl)c1C(=O)NC(C)(C)CO,-5.07%,–,"16.4 µM [falling, partial curve]"
COC(=O)CN(C)C(=O)CC1C(=O)NCCN1CC(C)(C)C (stereo unspecified),-35.2%,"6.51 µM [falling, full curve, poor fit]",–
O=C(COc1ccc(S(=O)(=O)NC2CCCCC2)cc1Cl)N1CCN(c2ccccc2)CC1,69.2%,"7.31 µM [rising, partial curve]","6.51 µM [rising, single point]"
CCc1cc2c(Sc3nc4ccccc4s3)ncnc2s1,-6.05%,–,"32.6 µM [rising, partial curve, poor fit]"
CNC(=S)N1CCN(c2cccc(OC)c2)CC1,19.7%,–,"25.9 µM [rising, single point]"
COc1ccc(CC2(CO)CCN(Cc3nc(C(C)C)cs3)CC2)cc1,-20.1%,–,–
Cc1ccc(-n2c3c(c(O)c(-c4ccccc4)c2=O)C(=O)CC(C)(C)C3)cc1,-18.3%,–,"2.31 µM [rising, partial curve]"
COc1ccc(/C(C)=N/NC(=O)c2ccc(CSc3nncn3C)cc2)cc1,59.7%,–,–
Cc1ccc(NS(=O)(=O)c2cc(C(=O)N3CCCC3)ccc2C)cc1C,-51.6%,"20.6 µM [falling, partial curve, poor fit]",–
CSc1nc(N2CCN(c3ccccc3Cl)CC2)c2ccccc2n1,11.4%,–,"23.1 µM [rising, partial curve, poor fit]"
CCCCOc1ccccc1NC(=O)Cn1c(-c2nonc2N)nc2ccccc21,–,"0.411 µM [rising, partial curve]","0.326 µM [rising, full curve]"

# Whole records, quoted from the list:
# COc1ccccc1C1C(C#N)=C(N)Oc2c1c(-c1ccccc1)nn2-c1ccccc1 (stereo unspecified) is listed as cell number change: -0.635%; AC50 [1]: 6.51 µM [falling, single point]
# CCOP(=O)(OCC)C(Nc1ccccc1)c1cc(OC)ccc1OC (stereo unspecified) is listed as cell number change: 3.18%
# CC(=O)Nc1ccc(C(=O)COC(=O)C2CCCCC2)c(F)c1 is listed as cell number change: 10.2%; AC50 [1]: 6.51 µM [rising, single point]; AC50 [2]: 3.66 µM [rising, single point]
# COc1ccc(CC2(CO)CCN(Cc3nc(C(C)C)cs3)CC2)cc1 is listed as cell number change: -20.1%
